Some entries of the source have several records that differ or are many. They are shown here; other results are not. The source may hold further records. The records of an entry do not match, cause unknown; they may come from other doses, times, organisms or constructs than stated.
System: primary human PBMC
Assay: STING primary human PBMC cytokine induction assay
Conditions: 48 h, approximately 20 μM, relative to PBS, tested form: Na salt

Fold induction of IFN-α: 1.4 fold and 6.3 fold | Fold induction of IFN-γ: 133.2 fold and 19.1 fold | Fold induction of TNFa: 5.1 fold and 11.5 fold
SMILES: COC1C2COP(=O)(O)OC3C(COP(=O)(O)OC1C(n1cnc4c(=O)[nH]c(N)nc41)O2)OC(n1cnc2c(N)ncnc21)C3O (stereo not drawn)

— patent US11472830B2
